Source: the supplement of paper PMC4604168 (melanoma cell lines)
The list shows a part of the results. Repeats are few or missing, and single values can be far off.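 The apoptosis fraction was the count of cleaved-PARP antibody-stained nuclei relative to all DNA-stained nuclei, imaged in 1,536-well plates. Screening doses were set so most cells survived, and baseline and induced cleaved-PARP levels vary greatly across cell lines.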

Tests used:
Experiment in all cases: cleaved PARP positive nuclei fraction relative to DMSO control; melanoma cells; higher = more apoptosis
Settings in all cases: library dose: low library concentration; 72 h
[1] = test system: MZ2-MEL
[2] = test system: MeWo
[3] = test system: RPMI7951
[4] = test system: RVH-421
[5] = test system: SkMel28
[6] = test system: SkMel2
[7] = test system: SkMel30
[8] = test system: SkMel5
[9] = test system: UACC257
[10] = test system: UACC62
[11] = test system: WM115
[12] = test system: WM1716
[13] = test system: WM1745
[14] = test system: WM3526
[15] = test system: WM3619
[16] = test system: WM451Lu

Compound | cleaved PARP positive nuclei fraction [1] | cleaved PARP positive nuclei fraction [2] | cleaved PARP positive nuclei fraction [3] | cleaved PARP positive nuclei fraction [4] | cleaved PARP positive nuclei fraction [5] | cleaved PARP positive nuclei fraction [6] | cleaved PARP positive nuclei fraction [7] | cleaved PARP positive nuclei fraction [8] | cleaved PARP positive nuclei fraction [9] | cleaved PARP positive nuclei fraction [10] | cleaved PARP positive nuclei fraction [11] | cleaved PARP positive nuclei fraction [12] | cleaved PARP positive nuclei fraction [13] | cleaved PARP positive nuclei fraction [14] | cleaved PARP positive nuclei fraction [15] | cleaved PARP positive nuclei fraction [16]
CN1CCN(c2ccc3nc(-c4c(N)c5c(F)cccc5[nH]c4=O)[nH]c3c2)CC1 [Dovitinib] + O=C(O)c1ccc(-c2c[nH]c3ncc(-c4ccccc4)cc23)cc1C1CCCC1 [GSK650394] (first compound 0.1 µM, partner dose 0.16 µM) | 115% | 137% | 31.4% | 13.3% | 60.5% | 53.4% | 195% | 39.2% | 95.3% | 110% | 129% | 107% | 128% | 72.8% | 96% | 47.6%
CCCS(=O)(=O)Nc1ccc(F)c(C(=O)c2c[nH]c3ncc(Cl)cc23)c1F + C[C@@H]1CCN(C(=O)CC#N)C[C@@H]1N(C)c1ncnc2[nH]ccc12 [CP690550] (first compound 0.08 µM, partner dose 1 µM) | 83.3% | 74.4% | 90.2% | 45.4% | 75.1% | 124% | 220% | 31.4% | 113% | 506% | 83.8% | 108% | 105% | 129% | 101% | 76.7%
CCCS(=O)(=O)Nc1ccc(F)c(C(=O)c2c[nH]c3ncc(Cl)cc23)c1F + CC1(C)NC(=O)N(c2ccc([N+](=O)[O-])c(C(F)(F)F)c2)C1=O [nilutamide] (first compound 0.08 µM, partner dose 1 µM) | 36.3% | 46.4% | 178% | 336% | 91.7% | 115% | 66% | 40.8% | 106% | 873% | 98.3% | 22.3% | 93.9% | 146% | 84.6% | 54.5%
CS(=O)(=O)CCNCc1ccc(-c2ccc3ncnc(Nc4ccc(OCc5cccc(F)c5)c(Cl)c4)c3c2)o1 [lapatinib] + NCC(=O)Nc1ccc(-n2nc(C(F)(F)F)cc2-c2ccc3c(ccc4ccccc43)c2)cc1 [OSU03012] (first compound 0.8 µM, partner dose 1 µM) | 108% | 182% | 80.8% | 50.3% | 190% | 214% | 105% | 47.7% | 199% | 43.4% | 115% | 53.4% | 104% | 94.9% | 66.8% | 88.5%
CC(C)C[C@H](NC(=O)[C@H](Cc1ccccc1)NC(=O)c1cnccn1)B(O)O [Bortezomib] + COc1ccc(-c2ccc3c(N4CCOCC4)nc(N4C[C@@H](C)O[C@@H](C)C4)nc3n2)cc1CO [KU0063794] (first compound 0.001 µM, partner dose 0.02 µM) | 314% | 187% | 116% | 131% | 181% | 66.8% | 337% | 169% | 316% | 207% | 112% | 573% | 156% | 85.2% | 1080% | 109%
O=C(O)c1ccc2c(c1)nc(Nc1cccc(Cl)c1)c1ccncc12 + CC1(C)NC(=O)N(c2ccc([N+](=O)[O-])c(C(F)(F)F)c2)C1=O [nilutamide] (first compound 0.4 µM, partner dose 1 µM) | 99.6% | 105% | 38.1% | 165% | 46.3% | 131% | 138% | 30.4% | 34.5% | 97.4% | 181% | 151% | 93% | 206% | 89.4% | 86.9%
O=C(O)c1ccc2c(c1)nc(Nc1cccc(Cl)c1)c1ccncc12 + C[C@@H]1CCN(C(=O)CC#N)C[C@@H]1N(C)c1ncnc2[nH]ccc12 [CP690550] (first compound 0.4 µM, partner dose 1 µM) | 43.5% | 107% | 138% | 56% | 53.7% | 127% | 61.3% | 28.4% | 127% | 77.2% | 53.9% | 118% | 79.5% | 60% | 94.4% | 117%
Nc1ncn([C@H]2C[C@H](O)[C@@H](CO)O2)c(=O)n1 [decitabine] + COc1cc(N2CCC(N3CCN(C)CC3)CC2)ccc1Nc1ncc(Cl)c(Nc2ccccc2S(=O)(=O)C(C)C)n1 [NVP-TAE684] (first compound 0.1 µM, partner dose 0.08 µM) | 109% | 139% | 36.4% | 101% | 245% | 120% | 59.7% | 83.1% | 211% | 191% | 354% | 85.9% | 189% | 84.2% | 157% | 121%
C=C(c1ccc(C(=O)O)cc1)c1cc2c(cc1C)C(C)(C)CCC2(C)C [Bexarotene] + Cc1cc(N2CCOCC2)cc2[nH]c(-c3c(NC[C@@H](O)c4cccc(Cl)c4)cc[nH]c3=O)nc12 [BMS536924] (first compound 2 µM, partner dose 0.2 µM) | 178% | 57% | 163% | 145% | 219% | 52.9% | 67.2% | 40.8% | 81% | 75.9% | 119% | 70.8% | 793% | 67.3% | 95.8% | 62%
CNC(=O)c1cc(Oc2ccc(NC(=O)Nc3ccc(Cl)c(C(F)(F)F)c3)cc2)ccn1 [sorafenib] + O=C(CCCCCCC(=O)Nc1ccccc1)NO [vorinostat] (first compound 0.4 µM, partner dose 0.08 µM) | 41.7% | 184% | 97.1% | 166% | 42.6% | 55.3% | 132% | 138% | 215% | 221% | 48.8% | 114% | 99.1% | 89.4% | 99.8% | 65.1%
O=C(O)[C@@H]1[O][Sb](=[O])([O][Sb]2(=[O])[O][C@H]([C@H](O)CO)[C@H](O)[C@H](C(=O)O)[O]2)[O][C@H]([C@H](O)CO)[C@@H]1O (stereo partly drawn) [stibogluconate] + CO[C@@H]1[C@H](N(C)C(=O)c2ccccc2)C[C@H]2O[C@]1(C)n1c3ccccc3c3c4c(c5c6ccccc6n2c5c31)C(=O)NC4 [Midostaurin] (first compound 2 µM, partner dose 0.08 µM) | 40.1% | 170% | 237% | 70.7% | 31% | 140% | 53.1% | 32.3% | 57.4% | 60.7% | 163% | 94.1% | 102% | 71.3% | 86.9% | 49.1%
Nc1ncn([C@H]2C[C@H](O)[C@@H](CO)O2)c(=O)n1 [decitabine] + NC(=O)Nc1cc(-c2cccc(F)c2)sc1C(=O)N[C@H]1CCCNC1 [AZD7762] (first compound 0.1 µM, partner dose 0.02 µM) | 41.8% | 139% | 78.7% | 28.3% | 59.6% | 48.5% | 132% | 60.5% | 97.4% | 32.6% | 308% | 121% | 101% | 63.5% | 157% | 201%
Cn1c(=O)n(-c2ccc(C(C)(C)C#N)cc2)c2c3cc(-c4cnc5ccccc5c4)ccc3ncc21 + COc1cc2c(Oc3ccc4[nH]c(C)cc4c3F)ncnc2cc1OCCCN1CCCC1 [cediranib] (first compound 0.004 µM, partner dose 0.4 µM) | 80.9% | 55.8% | 56.8% | 31.6% | 139% | 107% | 125% | 58.2% | 128% | 202% | 127% | 135% | 83.8% | 51.6% | 82.8% | 121%
CC(C)C[C@H](NC(=O)[C@H](Cc1ccccc1)NC(=O)c1cnccn1)B(O)O [Bortezomib] + OCCn1cc(-c2cnc3nnn(Cc4ccc5ncccc5c4)c3n2)cn1 [PF04217903] (first compound 0.001 µM, partner dose 1 µM) | 50.6% | 74.9% | 197% | 134% | 79.4% | 72.8% | 69.8% | 74% | 87.2% | 69.5% | 82.1% | 483% | 175% | 64.4% | 379% | 514%
CN1CCN(c2ccc3nc(-c4c(N)c5c(F)cccc5[nH]c4=O)[nH]c3c2)CC1 [Dovitinib] + COc1cc(N2CCC(N3CCN(C)CC3)CC2)ccc1Nc1ncc(Cl)c(Nc2ccccc2S(=O)(=O)C(C)C)n1 [NVP-TAE684] (first compound 0.1 µM, partner dose 0.08 µM) | 120% | 36.3% | 94.2% | 167% | 151% | 95.7% | 75.9% | 99.7% | 213% | 179% | 86.8% | 92.3% | 141% | 85.9% | 100% | 171%
Cc1cc(Nc2cc(N3CCN(C)CC3)nc(/C=C/c3ccccc3)n2)n[nH]1 + COc1cc2c(Oc3ccc4[nH]c(C)cc4c3F)ncnc2cc1OCCCN1CCCC1 [cediranib] (first compound 0.04 µM, partner dose 0.4 µM) | 121% | 102% | 100% | 20.2% | 102% | 60.7% | 65.9% | 79.1% | 129% | 232% | 50.8% | 166% | 134% | 118% | 101% | 101%
CS(=O)(=O)CCNCc1ccc(-c2ccc3ncnc(Nc4ccc(OCc5cccc(F)c5)c(Cl)c4)c3c2)o1 [lapatinib] + O=C(Nc1ccccc1)c1cc([N+](=O)[O-])ccc1Cl [GW9662] (first compound 0.8 µM, partner dose 2 µM) | 189% | 138% | 43.6% | 29.5% | 198% | 120% | 138% | 225% | 212% | 56.9% | 157% | 215% | 105% | 31.8% | 91% | 123%
C[C@@H](Oc1cc(-c2cnn(C3CCNCC3)c2)cnc1N)c1c(Cl)ccc(F)c1Cl [Crizotinib] + Cc1cc(N2CCOCC2)cc2[nH]c(-c3c(NC[C@@H](O)c4cccc(Cl)c4)cc[nH]c3=O)nc12 [BMS536924] (first compound 0.2 µM, partner dose 0.2 µM) | 222% | 217% | 47.6% | 121% | 57.3% | 62.9% | 75.5% | 141% | 132% | 79.5% | 129% | 125% | 146% | 63% | 74.2% | 76.9%

Nothing new here: an excerpt of the list.
Compound | cleaved PARP positive nuclei fraction [1] | cleaved PARP positive nuclei fraction [2] | cleaved PARP positive nuclei fraction [3] | cleaved PARP positive nuclei fraction [4] | cleaved PARP positive nuclei fraction [5] | cleaved PARP positive nuclei fraction [6] | cleaved PARP positive nuclei fraction [7] | cleaved PARP positive nuclei fraction [8] | cleaved PARP positive nuclei fraction [9] | cleaved PARP positive nuclei fraction [10] | cleaved PARP positive nuclei fraction [11] | cleaved PARP positive nuclei fraction [12] | cleaved PARP positive nuclei fraction [13] | cleaved PARP positive nuclei fraction [14] | cleaved PARP positive nuclei fraction [15] | cleaved PARP positive nuclei fraction [16]
Cn1c(=O)n(-c2ccc(C(C)(C)C#N)cc2)c2c3cc(-c4cnc5ccccc5c4)ccc3ncc21 + COc1cc2c(Oc3ccc4[nH]c(C)cc4c3F)ncnc2cc1OCCCN1CCCC1 [cediranib] (first compound 0.004 µM, partner dose 0.4 µM) | 80.9% | 55.8% | 56.8% | 31.6% | 139% | 107% | 125% | 58.2% | 128% | 202% | 127% | 135% | 83.8% | 51.6% | 82.8% | 121%
CC(C)C[C@H](NC(=O)[C@H](Cc1ccccc1)NC(=O)c1cnccn1)B(O)O [Bortezomib] + OCCn1cc(-c2cnc3nnn(Cc4ccc5ncccc5c4)c3n2)cn1 [PF04217903] (first compound 0.001 µM, partner dose 1 µM) | 50.6% | 74.9% | 197% | 134% | 79.4% | 72.8% | 69.8% | 74% | 87.2% | 69.5% | 82.1% | 483% | 175% | 64.4% | 379% | 514%
CN1CCN(c2ccc3nc(-c4c(N)c5c(F)cccc5[nH]c4=O)[nH]c3c2)CC1 [Dovitinib] + COc1cc(N2CCC(N3CCN(C)CC3)CC2)ccc1Nc1ncc(Cl)c(Nc2ccccc2S(=O)(=O)C(C)C)n1 [NVP-TAE684] (first compound 0.1 µM, partner dose 0.08 µM) | 120% | 36.3% | 94.2% | 167% | 151% | 95.7% | 75.9% | 99.7% | 213% | 179% | 86.8% | 92.3% | 141% | 85.9% | 100% | 171%
Cc1cc(Nc2cc(N3CCN(C)CC3)nc(/C=C/c3ccccc3)n2)n[nH]1 + COc1cc2c(Oc3ccc4[nH]c(C)cc4c3F)ncnc2cc1OCCCN1CCCC1 [cediranib] (first compound 0.04 µM, partner dose 0.4 µM) | 121% | 102% | 100% | 20.2% | 102% | 60.7% | 65.9% | 79.1% | 129% | 232% | 50.8% | 166% | 134% | 118% | 101% | 101%
CS(=O)(=O)CCNCc1ccc(-c2ccc3ncnc(Nc4ccc(OCc5cccc(F)c5)c(Cl)c4)c3c2)o1 [lapatinib] + O=C(Nc1ccccc1)c1cc([N+](=O)[O-])ccc1Cl [GW9662] (first compound 0.8 µM, partner dose 2 µM) | 189% | 138% | 43.6% | 29.5% | 198% | 120% | 138% | 225% | 212% | 56.9% | 157% | 215% | 105% | 31.8% | 91% | 123%
